Results reported in article PMC12040169 (PLOS Biology, 2025).
The other results are listed elsewhere or left out.

What follows are compounds tested on T1, CTL2-GFP (C. trachomatis L2/434/Bu, GFP-expressing). Conditions: bulk GFP, single well; 28.5 h, 10 µM; inhibitor.
T1 construct: L2/434/Bu, GFP-expressing
Design: species or system HeLa; Intracellular C. trachomatis growth in HeLa cells, bulk GFP fluorescence relative to DMSO

Structure (SMILES) | % of control remaining [%]
CCOCN(C(=O)Cn1c(C(C)O)nc2ccccc21)c1c(C)cccc1CC (stereo not drawn) [CBK297722] | 133.44
O=C1NC(=O)C(CCCCN2CCC(Cc3ccccc3)CC2)N1 (stereo not drawn) [CBK126435] | 93.0237
CC1(C)CC(=O)c2cnc3ncnn3c2C1 [CBK007345] | 119.664
CCCCC(C(=O)O)N1C(=O)C2CC=C(Cl)CC2C1=O (stereo not drawn) [CBK286536] | 136.978
O=C(NO)Nc1cc(Cl)cc(Cl)c1 [CBK016430] | 123.613
Cc1ccc2c(C)c(C(=O)Nc3sc4c(c3C(=O)NCc3ccco3)CCC4)oc2c1 [CBK267662] | 129.941
CC(=O)NC(O)C(=O)c1cccs1 (stereo not drawn) [CBK027756] | 81.282
COc1cccc(Cn2c(C3CCNCC3)cc3cccnc32)c1 [CBK285076] | 143.043
O=S(=O)(NCCn1c(-c2ccncc2)nc2ccccc21)c1ccccc1 [CBK288578] | 112.266
Cc1ccc(S(=O)(=O)NC(CC(=O)Nc2ccc(Br)cc2)c2ccccc2)cc1 (stereo not drawn) [CBK265110] | 100.568
CC1CCN(C(=O)c2cc(-c3ccco3)[nH]n2)CC1 [CBK296648] | 148.27
Cc1cc(=O)oc2ccc(OCC(=O)N(Cc3ccc(F)cc3)Cc3ccco3)cc12 [CBK266639] | 114.829
c1cnn(CCNc2nc3nonc3nc2N2CCCCC2)c1 [CBK306740] | 108.364
C(=N\N1CCOCC1)/c1ccc2c(c1)OCO2 [CBK026446] | 99.7988
CCN1CCCC2(CCN(C(=O)c3ccoc3)C2)C1 (stereo not drawn) [CBK132832] | 51.6374
Cc1cccc(C2(CNC(=O)C3COCCO3)CCCCC2)c1 (stereo not drawn) [CBK305087] | 103.137
Cc1cccc(CN2CC[C@@H]3[C@H](C2)[C@@H](c2ccsc2)CN3C(=O)c2ccccc2F)c1 [CBK285659] | 95.0593
CC(=O)Nc1cccc(-c2cnc3[nH]c(=O)n([C@H](C)c4ccccc4)c3n2)c1 [CBK064188] | 91.3379
O=C(O)CCc1ccc(S(=O)(=O)Nc2ccc(N3CCCC3=O)cc2)cc1 [CBK295647] | 150.616
CN1C(=O)c2ccccc2C(=O)[C@@]2(C)CN(CC(C)(C)C)C[C@@H]12 [CBK283481] | 110.342
N#CCCn1cc(C(=O)Nc2ccc(C(=O)O)cc2)c(-c2cc3ccccc3o2)n1 [CBK267866] | 123.569

2 compounds picked at random from those above, as already listed:
Structure (SMILES) | % of control remaining [%]
CN1C(=O)c2ccccc2C(=O)[C@@]2(C)CN(CC(C)(C)C)C[C@@H]12 [CBK283481] | 110.342
CC(=O)NC(O)C(=O)c1cccs1 (stereo not drawn) [CBK027756] | 81.282

The results go on:

Structure (SMILES) | % of control remaining [%]
CCN(CC)CCCNC(=O)N1CCN(Cc2ccccc2)CC1 [CBK155655] | 123.307
CCOc1ccc(C(N)CC(=O)O)cc1 (stereo not drawn) [CBK262933C] | 127.439
O=C(CCCOc1ccc(Cl)cc1Cl)NO [CBK288436] | 123.381
Cc1cc(C)cc(Oc2coc3c(CN4CCOCC4)c(O)ccc3c2=O)c1 [CBK263908] | 110.159
CCN1CCN(c2ccc(NC(=O)c3cccnc3)cc2Cl)CC1 [CBK266629C] | 177.15
CC(=O)Nc1ccc(C2=NC3SC(c4ccc(NC(C)=O)cc4)=NC3S2)cc1 (stereo not drawn) [CBK019799] | 136.612
O=C(Nc1ccccc1OC1CCNCC1)c1ccccc1 [CBK050238T] | 112.466
c1ccc(C(NCc2cnc(C3CCC3)s2)C2CCCC2)nc1 (stereo not drawn) [CBK304022] | 123.926
CC[C@H](Cn1nc(-c2cccs2)ccc1=O)NC(=O)C(C)C [CBK284296] | 99.3117
Cc1c(Cl)c([N+](=O)[O-])nn1CCCC(=O)Nc1cc(Br)ccc1O [CBK268875] | 134.719
CC1CCCN(CC(O)c2ccc3c(c2)CCCN3C(=O)C2CC2)C1 (stereo not drawn) [CBK282136] | 136.009
COc1cccc(OCC(O)CN2CCN(Cc3ccccc3)CC2)c1 (stereo not drawn) [CBK074856C] | 119.405
CCOc1ccc(-c2cn(C(=O)Nc3ccccc3)nc2N)cc1 [CBK267317] | 150.533
Cc1cc(C(=O)Nc2nnc(Cc3ccccc3)s2)c2ccccc2n1 [CBK295607] | 122.694
CC(NC(=O)CC(F)(F)F)c1nc(-c2ccncc2)cs1 (stereo not drawn) [CBK306370] | 136.175
Fc1c(CN2CCOCC2)cccc1CN1CCOCC1 [CBK085967] | 138.286
COc1ccc(OC)c(C(C)NC(=O)C2CCN(CCc3cccs3)CC2)c1 (stereo not drawn) [CBK148766] | 101.514
Cc1c(CNc2nnc(C(C)(C)C)o2)cnn1C [CBK306439] | 76.8669
Cc1nccn1-c1ccc(NC(=O)c2ccn(C(F)F)n2)cc1 [CBK281410] | 96.5141
CN1CCN(c2cnn(CCCOc3ccccc3)c(=O)c2)CC1 [CBK307203] | 115.854
CCc1nn(CC(=O)NCC2CC2)c(=O)c2cc3ccsc3n12 [CBK284129] | 123.751

Structure (SMILES) | % of control remaining [%]
CC(=O)N1CCCC(c2nc(-c3ccncc3)ncc2-c2ccccc2)C1 (stereo not drawn) [CBK291110] | 152.877
COCCN(Cc1ccccc1C)C(=O)C1CCc2nn(C)c(=O)n2C1 (stereo not drawn) [CBK306934] | 156.362
CCN(CC)C(=O)C1CCCN(C(=O)Nc2ccc3c(c2)OCCO3)C1 (stereo not drawn) [CBK156135] | 100
CC(C)(C)c1cc(CN(Cc2cc(C(C)(C)C)c(O)c(C(C)(C)C)c2)C2CCCCC2)cc(C(C)(C)C)c1O [CBK261996] | 99.7254
NCCCNC(=O)c1cc2ccccc2[nH]1 [CBK267639] | 117.752
CCOC(=O)N1CCN(S(=O)(=O)c2ccc3c(c2)oc(=O)n3C)CC1 [CBK304667] | 61.5978
COc1ccccc1-c1ccc(CN2CCC(NC(C)=O)(c3ccc(F)cc3)CC2)cc1 [CBK286349] | 124.378
O=C(O)c1ccc(CN2C(=O)c3ccc(C(=O)O)cc3C2=O)cc1 [CBK262823] | 127.379
CC(C)(Oc1ccc(F)cc1)C(=O)N1CCC(C(=O)NCCc2ccccc2)C1 (stereo not drawn) [CBK285702] | 113.945
CCCC/C=C/c1cncc(NCc2ccc(OC)cc2)n1 [CBK037933] | 161.639
COC1C(O)C(CO)OC1n1cc(I)c(N)nc1=O (stereo not drawn) [CBK201296] | 135.97
O=C(NC1CCCC1)c1ccnc2ccccc12 [CBK200237] | 114.075
O=C(Cc1ccccc1)N1CCN(CCCc2ccccc2)CC1 [CBK263451G] | 100
Cc1ccc(-n2nc(C(=O)NC3(C#N)CCSC3)cc2C)cc1 (stereo not drawn) [CBK306403] | 147.129
Cc1cc(N(C)CCOc2ccccc2F)nc(N)n1 [CBK305969] | 118.761
Cc1ccn2cc(-c3ccc4c(c3)CC(C)N4S(C)(=O)=O)nc2c1 (stereo not drawn) [CBK285183] | 120.987
Oc1ccc(-c2oncc2-c2ccccc2)c(O)c1 [CBK288228] | 119.252
Cc1ccc(C(=O)Nc2nnn(C)n2)c(Cl)c1 [CBK287856] | 136.887
CC(C)CNc1nc(-c2ccc(F)cc2)cnc1N [CBK063815] | 124.383
Cc1nc2ncnn2c(C)c1CCC(=O)Nc1cccc(CCc2ccncc2)c1 [CBK285557] | 120.59
Cc1ccc(-c2cc(C(F)(F)F)n3ncc(C(=O)NCc4c(C)nn(C)c4C)c3n2)cc1 [CBK293956] | 115.815

Filtered by structure: the compounds so far with a halogen (18)
Structure (SMILES) | % of control remaining [%]
CCCCC(C(=O)O)N1C(=O)C2CC=C(Cl)CC2C1=O (stereo not drawn) [CBK286536] | 136.978
O=C(NO)Nc1cc(Cl)cc(Cl)c1 [CBK016430] | 123.613
Cc1ccc(S(=O)(=O)NC(CC(=O)Nc2ccc(Br)cc2)c2ccccc2)cc1 (stereo not drawn) [CBK265110] | 100.568
Cc1cc(=O)oc2ccc(OCC(=O)N(Cc3ccc(F)cc3)Cc3ccco3)cc12 [CBK266639] | 114.829
Cc1cccc(CN2CC[C@@H]3[C@H](C2)[C@@H](c2ccsc2)CN3C(=O)c2ccccc2F)c1 [CBK285659] | 95.0593
O=C(CCCOc1ccc(Cl)cc1Cl)NO [CBK288436] | 123.381
CCN1CCN(c2ccc(NC(=O)c3cccnc3)cc2Cl)CC1 [CBK266629C] | 177.15
Cc1c(Cl)c([N+](=O)[O-])nn1CCCC(=O)Nc1cc(Br)ccc1O [CBK268875] | 134.719
CC(NC(=O)CC(F)(F)F)c1nc(-c2ccncc2)cs1 (stereo not drawn) [CBK306370] | 136.175
Fc1c(CN2CCOCC2)cccc1CN1CCOCC1 [CBK085967] | 138.286
Cc1nccn1-c1ccc(NC(=O)c2ccn(C(F)F)n2)cc1 [CBK281410] | 96.5141
COc1ccccc1-c1ccc(CN2CCC(NC(C)=O)(c3ccc(F)cc3)CC2)cc1 [CBK286349] | 124.378
CC(C)(Oc1ccc(F)cc1)C(=O)N1CCC(C(=O)NCCc2ccccc2)C1 (stereo not drawn) [CBK285702] | 113.945
COC1C(O)C(CO)OC1n1cc(I)c(N)nc1=O (stereo not drawn) [CBK201296] | 135.97
Cc1cc(N(C)CCOc2ccccc2F)nc(N)n1 [CBK305969] | 118.761
Cc1ccc(C(=O)Nc2nnn(C)n2)c(Cl)c1 [CBK287856] | 136.887
CC(C)CNc1nc(-c2ccc(F)cc2)cnc1N [CBK063815] | 124.383
Cc1ccc(-c2cc(C(F)(F)F)n3ncc(C(=O)NCc4c(C)nn(C)c4C)c3n2)cc1 [CBK293956] | 115.815

(further entries)

Structure (SMILES) | % of control remaining [%]
Cc1nc2c(c(=O)[nH]1)CN(Cc1cn(C(C)C)c3ccccc13)CC2 [CBK284014] | 135.524
COC(=O)[C@H]1CN(C(=O)c2cccs2)C[C@@H]1c1ccccc1F [CBK283775] | 129.91
COc1ccc(C(=O)O)cc1N1C(=O)CC(c2c(C)nn(-c3ccccc3)c2N)C1=O (stereo not drawn) [CBK291120] | 94.6284
CC(C)S(=O)(=O)N1CCC(n2c(=O)[nH]c3ccccc32)CC1 [CBK149693] | 86.9001
CC1(C)OC(=O)C(=CNC(CCC(=O)O)C(=O)O)C(=O)O1 (stereo not drawn) [CBK263510] | 112.16
CC(=O)N1C[C@@H](c2ccsc2)[C@@H]2CN(Cc3ccccc3)CC[C@@H]21 [CBK284585] | 93.2848
CN(C)CCNC(=O)c1cccc(Oc2ccccc2)c1 [CBK270310] | 136.73
C=CCn1c(Cc2csc(NC(=O)c3cccc([N+](=O)[O-])c3)n2)n[nH]c1=S [CBK295339] | 143.112
Cc1cccc(-c2ncc(NC(=O)C3CC3)nc2-c2cccnc2)c1 [CBK037134] | 79.539
O=C(CSc1nc2ccccc2c2nc3ccccc3n12)Nc1cccc(Cl)c1 [CBK267872] | 135.408
Cc1cc(-c2nnc(SCC(=O)N3CCCCC3)o2)no1 [CBK268731] | 144.963
CCOC(=O)c1ccc(-n2c(CCC(=O)O)ccc2-c2cccs2)cc1O [CBK266015] | 79.1136
O=C(O)c1cc(S(=O)(=O)N2CCCCC2)ccc1O [CBK286595] | 92.5733
CCOC(=O)N1COC[C@@H]1C(=O)O [CBK010379] | 141.759
COc1cc(C=CC(=O)O)ccc1OCC(=O)N1CCN(CC(=O)NC(C)(C)C)CC1 [CBK296987] | 108.258
CCc1ccc(CN2CCN(C(=O)c3ccncc3)CC2)cc1 [CBK301211G] | 169.996
CCCCSc1cc(C)nc2ncnn12 [CBK021443] | 124.493
C/C(=N/Nc1nc[nH]n1)c1ccc(Cl)c(Cl)c1 [CBK028722] | 129.644
